Measurements reported in PubChem BioAssay AID330 (DTP/NCI, 2004).
The list does not hold the whole screen: it is rich in T/C values a quarter to a half above the control, in often repeated tests (any T/C) and in doses without a T/C. Other doses and runs of a compound stand elsewhere. T/C gives the treated animals as a percentage of the vehicle group. Some doses have a count of surviving animals in place of a T/C: the source files T/C as zero there, which appears to mark a toxic dose or a test without result, not a measured value. Some survivor counts are full or nearly so, which does not show that the dose was tolerated: the source hardly ever lists a survival T/C far under the control, and the zero likely stands for such cases as well. Counts of survivors are from the toxicity check (mostly the fifth day) where no day follows; animals may have died later. Schedule codes are those of the source, taken here to give the interval after Q, in days (D) or hours (H), and the number of doses after X. Where survival is the endpoint, the PubChem record calls one and a half times the control and up active, and a quarter to a half above the control has no call in these data; cut-offs in other NCI protocols can differ. Some entries were tested several times; their values stand side by side, smallest first.

Tested on: P388 leukemia ip, CD2F1 mice, survival T/C
Assay: NCI In Vivo Anticancer Drug Screen. Data for tumor model P388 Leukemia (intraperitoneal) in CD2F1 (CDF1) mice
Details: T/C endpoint: median survival time, higher T/C = longer survival
[1] = dose: 50.0 mg/kg/injection, schedule: Q01DX005 (ip), vehicle: Klucel (hydroxypropylcellulose) (HPC)
[2] = dose: 100.0 mg/kg/injection, schedule: Q01DX005 (ip), vehicle: Klucel (hydroxypropylcellulose) (HPC)
[3] = dose: 200.0 mg/kg/injection, schedule: Q01DX005 (ip), vehicle: Klucel (hydroxypropylcellulose) (HPC)

Question: With `CC(C)(SSC(C)(C)C1NC(=O)NC1=O)C1NC(=O)NC1=O` (stereo not drawn) as the molecule, how does the survivor count [1] read?
Answer: Its survivor count is 6 of 6.

Question: And the survivor count [2]?
Answer: Its survivor count is 1 of 6.

Question: And the survivor count [3]?
Answer: Its survivor count is 0 of 6.

Question: `CCCCCCCCCCCCCCCC(=O)NCCO` was tested. Which survivor count (dose: 50.0 mg/kg/injection, schedule: Q04DX003 (ip), vehicle: saline with Tween-80) did it give?
Answer: The survivor count was 6 of 6.

Question: Which results are given for `CC(=O)NC1=CC(=O)c2[nH]c(=O)[nH]c(=O)c2C1=O`?
Answer: survivor count (dose: 25.0 mg/kg/injection, schedule: Q01DX005 (ip), vehicle: DMSO): 0 of 6; survivor count (dose: 25.0 mg/kg/injection, schedule: Q01DX005 (ip), vehicle: other): 2 of 6; survivor count (dose: 50.0 mg/kg/injection, schedule: Q01DX005 (ip), vehicle: DMSO): 0 of 6; survivor count (dose: 100.0 mg/kg/injection, schedule: Q01DX005 (ip), vehicle: DMSO): 0 of 6; survivor count (dose: 200.0 mg/kg/injection, schedule: Q01DX005 (ip), vehicle: DMSO): 0 of 6

Question: Which T/C (dose: 12.5 mg/kg/injection, schedule: Q01DX009 (ip), vehicle: distilled water + Tween-80) does the source give for `CNC(=O)OCc1c(COC(=O)NC)c(-c2ccc(Cl)cc2Cl)n2c1CCC2` here?
Answer: The T/C was 132 % of control.

Question: And the T/C (dose: 25.0 mg/kg/injection, schedule: Q01DX009 (ip), vehicle: distilled water + Tween-80)?
Answer: Its T/C is 138 % of control.

Question: What about the T/C (dose: 50.0 mg/kg/injection, schedule: Q01DX009 (ip), vehicle: distilled water + Tween-80) of the same molecule?
Answer: The T/C was 148 % of control.

Question: And the survivor count (dose: 200.0 mg/kg/injection, schedule: Q01DX009 (ip), vehicle: distilled water + Tween-80)?
Answer: The survivor count was 0 of 6.

Question: With `CN(C)CCNC(=O)c1ccc(C(=O)NCCN(C)C)c2c(C(=O)NCCN(C)C)ccc(C(=O)NCCN(C)C)c12` as the molecule, how does the survivor count (dose: 25.0 mg/kg/injection, schedule: Q01DX005 (ip), vehicle: saline with Tween-80) read?
Answer: The survivor count was 3 of 6.

Question: What about the survivor count (dose: 50.0 mg/kg/injection, schedule: Q01DX005 (ip), vehicle: saline with Tween-80) of the same molecule?
Answer: Its survivor count is 0 of 6.

Question: What about the survivor count (dose: 100.0 mg/kg/injection, schedule: Q01DX005 (ip), vehicle: saline with Tween-80) of the same molecule?
Answer: Its survivor count is 0 of 6.

Question: And the survivor count (dose: 200.0 mg/kg/injection, schedule: Q01DX005 (ip), vehicle: saline with Tween-80)?
Answer: Its survivor count is 0 of 6.

Question: For `CNC(=O)OCc1c(COC(=O)NC)c(-c2ccc(F)cc2)n2c1CCC2`, which survivor count (dose: 25.0 mg/kg/injection, schedule: Q01DX009 (ip), vehicle: Klucel (hydroxypropylcellulose) (HPC)) is on record?
Answer: The survivor count was 2 of 6.

Question: And the survivor count (dose: 50.0 mg/kg/injection, schedule: Q01DX009 (ip), vehicle: Klucel (hydroxypropylcellulose) (HPC))?
Answer: The survivor count was 4 of 6.

Question: And the survivor count (dose: 100.0 mg/kg/injection, schedule: Q01DX009 (ip), vehicle: Klucel (hydroxypropylcellulose) (HPC))?
Answer: The survivor count was 0 of 6.

Question: And the survivor count (dose: 200.0 mg/kg/injection, schedule: Q01DX009 (ip), vehicle: Klucel (hydroxypropylcellulose) (HPC))?
Answer: Its survivor count is 0 of 6.

Question: Which T/C (dose: 1.0 mg/kg/injection, schedule: Q01DX009 (ip), vehicle: saline) does the source give for `Cc1c(N)nc(C(CC(N)=O)NCC(N)C(N)=O)nc1C(=O)NC(C(=O)NC(C)C(O)C(C)C(=O)NC(C(=O)NCCc1nc(-c2nc(C(=O)NCCC[S+](C)C)cs2)cs1)C(C)O)C(OC1OC(CO)C(O)C(O)C1OC1OC(CO)C(O)C(OC(N)=O)C1O)c1cnc[nH]1` (stereo not drawn) here?
Answer: The T/C was 101, 108, 110, 111 % of control.

Question: What about the T/C (dose: 2.0 mg/kg/injection, schedule: Q01DX009 (ip), vehicle: saline) of the same molecule?
Answer: Its T/C is 100, 108, 110, 118, 119 % of control.

Question: And the T/C (dose: 4.0 mg/kg/injection, schedule: Q01DX009 (ip), vehicle: saline)?
Answer: The T/C was 109, 110, 116, 121, 126 % of control.

Question: And the T/C (dose: 8.0 mg/kg/injection, schedule: Q01DX009 (ip), vehicle: saline)?
Answer: The T/C was 108, 115, 118, 119, 142 % of control.

Question: What about the T/C (dose: 16.0 mg/kg/injection, schedule: Q01DX009 (ip), vehicle: saline) of the same molecule?
Answer: Its T/C is 100, 109, 112, 115, 148 % of control.

Question: Which results are given for `CN(C)c1ncnc2nc(Cl)[nH]c12`?
Answer: survivor count [1]: 3 of 5; survivor count [2]: 1 of 5; survivor count [3]: 0 of 5

Question: `CCNC(C)(C)C(SS)c1ccc(C(F)(F)F)cc1` (stereo not drawn) was tested. Which survivor count (dose: 200.0 mg/kg/injection, schedule: Q04DX003 (ip), vehicle: saline with Tween-80) did it give?
Answer: The survivor count was 5 of 6.

Question: What does the source list for `O=C(c1ccc(Cl)cc1)c1cc2c(ccc3ccccc32)oc1=O`?
Answer: survivor count (dose: 50.0 mg/kg/injection, schedule: Q01DX009 (ip), vehicle: saline with Tween-80): 6 of 6; survivor count (dose: 100.0 mg/kg/injection, schedule: Q01DX009 (ip), vehicle: saline with Tween-80): 6 of 6; survivor count (dose: 200.0 mg/kg/injection, schedule: Q01DX009 (ip), vehicle: saline with Tween-80): 6 of 6
